Test results from article PMC10991553.
No constants are given. Whether binding was seen depends on the method and setting. Some results given as binding are weak or reduced against the parent protein; the word gives no strength. Sequences can lack the tags named with a protein.

B1: Xrs2 (FLAG-tag at the C-terminus) (protein, UniProt P33301 1-854)
chain: MWVVRYQNTLEDGSISFISCCLQAFKTYSIGRSSKNPLIIKNDKSISRQHITFKWEINNSSDLKHSSLCLVNKGKLTSLNKKFMKVGETFTINASDVLKSTIIELGTTPIRIEFEWINEVWNIPPHLTQFRTMLSEYGISTEISINDIPANLMISDYPKSEDNSIRELYALVSTIPMKKSRFLMELCNTLLPTSKTNLKFDEMWNDMISNPEYNVFDFDPNILLSKFMRLNNIRVLTTIKSEPRLSSLLRTFNINLFAFDNIDSLYKYVDSLEASTEYLILTTTDKKENGKILCTIKTMLTSIIDGTLSAVINMKGASSRTLDNGKFDQISEGMSTILKTSRAPEVEASPVVSKKRKLNRRRVLPLDSLDFFAGGLSTKTLSENRSLTDAKRLNCGAESKTVISSPNIAEADEKHAPFLQNALKPTEDIGKKSGHSSPGAIIVSSPNLGTVNTSEDSLDKSLQSHKLPQPSLPEVAGIGSQTISSNSADYETAAVNSMDDAEVTKNFRVNHHQNIEQPSKNIRKLSNYSREISSPLQENCKSPVKELSIKEKSGTPHAFVEAIQETKNREVKRVKSTIVELKDEELSEEAINQLKNLAIVEPSNNLLRKSFDSEGNKTSRTTEKWENSLMEPEWHKRKNFKTFVKVRPKSKAHKEEGKNNTQSSDFIRNAAFLITRNYVPLKKYSKKDTTTKWGTEENEDMFALTEMERFGSNTFMSDNINSNTIQKRSQALNRFTNEDSSNEGEEDSFSFSRCSGTAASVQPLKNKIFITDEDDLGDIDDKSDRLNHRENNRNLFVVKEMNLRPNLSEECSKQSRHSRSATSRSRGSFGASNNGDGDDDDDDGPKFTFKRRKG
B2: Rad50 (protein, UniProt P12753 1-1312)
chain: MSAIYKLSIQGIRSFDSNDRETIEFGKPLTLIVGMNGSGKTTIIECLKYATTGDLPPNSKGGVFIHDPKITGEKDIRAQVKLAFTSANGLNMIVTRNIQLLMKKTTTTFKTLEGQLVAINNSGDRSTLSTRSLELDAQVPLYLGVPKAILEYVIFCHQEDSLWPLSEPSNLKKKFDEIFQAMKFTKALDNLKSIKKDMSVDIKLLKQSVEHLKLDKDRSKAMKLNIHQLQTKIDQYNEEVSEIESQLNEITEKSDKLFKSNQDFQKILSKVENLKNTKLSISDQVKRLSNSIDILDLSKPDLQNLLANFSKVLMDKNNQLRDLETDISSLKDRQSSLQSLSNSLIRRQGELEAGKETYEKNRNHLSSLKEAFQHKFQGLSNIENSDMAQVNHEMSQFKAFISQDLTDTIDQFAKDIQLKETNLSDLIKSITVDSQNLEYNKKDRSKLIHDSEELAEKLKSFKSLSTQDSLNHELENLKTYKEKLQSWESENIIPKLNQKIEEKNNEMIILENQIEKFQDRIMKTNQQADLYAKLGLIKKSINTKLDELQKITEKLQNDSRIRQVFPLTQEFQRADLEMDFQKLFINMQKNIAINNKKMHELDRRYTNALYNLNTIEKDLQDNQKSKEKVIQLLSENLPEDCTIDEYNDVLEETELSYKTALENLKMHQTTLEFNRKALEIAERDSCCYLCSRKFENESFKSKLLQELKTKTDANFEKTLKDTVQNEKEYLHSLRLLEKHIITLNSINEKIDNSQKCLEKAKEETKTSKSKLDELEVDSTKLKDEKELAESEIRPLIEKFTYLEKELKDLENSSKTISEELSIYNTSEDGIQTVDELRDQQRKMNDSLRELRKTISDLQMEKDEKVRENSRMINLIKEKELTVSEIESSLTQKQNIDDSIRSKRENINDIDSRVKELEARIISLKNKKDEAQSVLDKVKNERDIQVRNKQKTVADINRLIDRFQTIYNEVVDFEAKGFDELQTTIKELELNKAQMLELKEQLDLKSNEVNEEKRKLADSNNEEKNLKQNLELIELKSQLQHIESEISRLDVQNAEAERDKYQEESLRLRTRFEKLSSENAGKLGEMKQLQNQIDSLTHQLRTDYKDIEKNYHKEWVELQTRSFVTDDIDVYSKALDSAIMKYHGLKMQDINRIIDELWKRTYSGTDIDTIKIRSDEVSSTVKGKSYNYRVVMYKQDVELDMRGRCSAGQKVLASIIIRLALSETFGANCGVIALDEPTTNLDEENIESLAKSLHNIINMRRHQKNFQLIVITHDEKFLGHMNAAAFTDHFFKVKRDDRQKSQIEWVDINRVTY

Target: T1, Mre11 (His-tag at the C-terminus) (budding yeast) (UniProt P32829)
T1 sequence: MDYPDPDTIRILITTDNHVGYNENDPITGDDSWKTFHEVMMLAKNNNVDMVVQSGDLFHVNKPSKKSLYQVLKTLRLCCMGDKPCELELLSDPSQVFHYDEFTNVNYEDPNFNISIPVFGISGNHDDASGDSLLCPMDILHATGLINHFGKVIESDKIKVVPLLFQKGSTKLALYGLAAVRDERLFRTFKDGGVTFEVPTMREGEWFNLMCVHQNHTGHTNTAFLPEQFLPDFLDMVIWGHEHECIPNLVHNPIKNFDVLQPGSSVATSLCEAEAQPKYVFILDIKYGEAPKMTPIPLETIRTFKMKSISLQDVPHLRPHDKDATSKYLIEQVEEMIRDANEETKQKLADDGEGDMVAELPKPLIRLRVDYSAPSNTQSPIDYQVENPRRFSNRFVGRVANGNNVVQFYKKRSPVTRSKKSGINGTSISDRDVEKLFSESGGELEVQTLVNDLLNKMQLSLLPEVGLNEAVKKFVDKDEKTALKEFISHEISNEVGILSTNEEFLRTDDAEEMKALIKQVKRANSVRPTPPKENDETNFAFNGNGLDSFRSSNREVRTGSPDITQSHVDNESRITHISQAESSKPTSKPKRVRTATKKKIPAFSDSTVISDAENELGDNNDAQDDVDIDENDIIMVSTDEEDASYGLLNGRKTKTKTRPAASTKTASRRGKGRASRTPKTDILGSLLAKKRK
Experiment: co-purification by affinity chromatography; Mre11-Rad50-Xrs2 co-expressed in Sf9 cells; NiNTA resin (His-tag on Mre11) followed by anti-FLAG M2 affinity resin (FLAG-tag on Xrs2)

Row | Binder | binding
1 | B1 | binds
2 | B2 | binds
